PubChem BioAssay AID1224830, NIAID, 2016

Purpose: 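Regulators of TLR4 signalling towards TNF-alpha in macrophage-like cells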 (primary screen)
Cells: human THP-1 monocytic leukaemia cells, TNF dual-luciferase reporter clone, PMA-differentiated to macrophage-like cells
Reagent: siRNA pool against human genes, 50 nM
Timing: LPS for 4 h, given about 3 days after siRNA transfection
Treatment: bacterial LPS (TLR4 ligand), 10 ng/ml
Measured: 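Ratio of firefly to renilla light, scaled to the plate median and expressed as a robust z-score per replicate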
Scale: TNF reporter robust z-score: higher = stronger TNF reporter response to LPS
Hit rule: 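Each well counts as active if its z-score is over 2.8 or under -1.5; controls are left without a call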
Here is an unselected part of about 18,000 deposited reagents. About 2,900 of them (16%) count as active. 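Calls are made per well; low scores hint the gene aids the LPS response, high scores that it dampens it.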 Reagents against one gene are numbered here. Repeated entries: four replicate wells of each siRNA pool.

gene knocked down | reagent | TNF reporter robust z-score | activity call
GLYAT (glycine-N-acyltransferase) | 1 | 0.13 | inactive
GLYAT (glycine-N-acyltransferase) | 1 | 1.82 | inactive
GLYAT (glycine-N-acyltransferase) | 1 | 2.37 | inactive
GLYAT (glycine-N-acyltransferase) | 1 | 2.27 | inactive
NDST4 (N-deacetylase and N-sulfotransferase 4) | 1 | -0.34 | inactive
NDST4 (N-deacetylase and N-sulfotransferase 4) | 1 | -0.18 | inactive
NDST4 (N-deacetylase and N-sulfotransferase 4) | 1 | -1.37 | inactive
NDST4 (N-deacetylase and N-sulfotransferase 4) | 1 | 0.11 | inactive
SLA (Src like adaptor) | 1 | 0.34 | inactive
SLA (Src like adaptor) | 1 | -0.35 | inactive
SLA (Src like adaptor) | 1 | 0.08 | inactive
SLA (Src like adaptor) | 1 | 1.22 | inactive
IL1A (interleukin 1 alpha) | 1 | -0.62 | inactive
IL1A (interleukin 1 alpha) | 1 | -0.85 | inactive
IL1A (interleukin 1 alpha) | 1 | -0.83 | inactive
IL1A (interleukin 1 alpha) | 1 | -0.38 | inactive
LRP8 (LDL receptor related protein 8) | 1 | -0.16 | inactive
LRP8 (LDL receptor related protein 8) | 1 | -0.07 | inactive
LRP8 (LDL receptor related protein 8) | 1 | -0.46 | inactive
LRP8 (LDL receptor related protein 8) | 1 | 0.45 | inactive
LOC652591 (retired record) | 1 | -0.38 | inactive
LOC652591 (retired record) | 1 | 0.17 | inactive
LOC652591 (retired record) | 1 | 1.29 | inactive
LOC652591 (retired record) | 1 | -0.29 | inactive
CDIP1 (cell death inducing p53 target 1) | 1 | 0.18 | inactive
CDIP1 (cell death inducing p53 target 1) | 1 | 0.49 | inactive
CDIP1 (cell death inducing p53 target 1) | 1 | 1.09 | inactive
KIF22 (kinesin family member 22) | 1 | -0.43 | inactive
KIF22 (kinesin family member 22) | 1 | 0.17 | inactive
KIF22 (kinesin family member 22) | 1 | -0.2 | inactive
KIF22 (kinesin family member 22) | 1 | 0.39 | inactive
XTBD1 (XRN2 binding domain containing 1) | 1 | 1.17 | inactive
XTBD1 (XRN2 binding domain containing 1) | 1 | 1.23 | inactive
XTBD1 (XRN2 binding domain containing 1) | 1 | 1.98 | inactive
XTBD1 (XRN2 binding domain containing 1) | 1 | 1.73 | inactive
SPG11 (SPG11 vesicle trafficking associated, spatacsin) | 1 | -0.66 | inactive
SPG11 (SPG11 vesicle trafficking associated, spatacsin) | 1 | -1.48 | inactive
SPG11 (SPG11 vesicle trafficking associated, spatacsin) | 1 | -0.91 | inactive
SPG11 (SPG11 vesicle trafficking associated, spatacsin) | 1 | 0.07 | inactive
ZNF677 (zinc finger protein 677) | 1 | -0.94 | inactive
ZNF677 (zinc finger protein 677) | 1 | -0.79 | inactive
ZNF677 (zinc finger protein 677) | 1 | -1.25 | inactive
ZNF677 (zinc finger protein 677) | 1 | -1.14 | inactive
SUCLG2 (succinate-CoA ligase GDP-forming subunit beta) | 1 | -0.23 | inactive
SUCLG2 (succinate-CoA ligase GDP-forming subunit beta) | 1 | -0.54 | inactive
SUCLG2 (succinate-CoA ligase GDP-forming subunit beta) | 1 | -0.75 | inactive
SUCLG2 (succinate-CoA ligase GDP-forming subunit beta) | 1 | -0.35 | inactive
VDAC3 (voltage dependent anion channel 3) | 1 | -0.91 | inactive
VDAC3 (voltage dependent anion channel 3) | 1 | 0.05 | inactive
VDAC3 (voltage dependent anion channel 3) | 1 | -0.74 | inactive
VDAC3 (voltage dependent anion channel 3) | 1 | 0.5 | inactive
CTPS2 (CTP synthase 2) | 1 | 0.44 | inactive
CTPS2 (CTP synthase 2) | 1 | 0.6 | inactive
CTPS2 (CTP synthase 2) | 1 | -0.71 | inactive
CTPS2 (CTP synthase 2) | 1 | 0.13 | inactive
ATPAF2 (ATP synthase mitochondrial F1 complex assembly factor 2) | 1 | -1.05 | inactive
ATPAF2 (ATP synthase mitochondrial F1 complex assembly factor 2) | 1 | 0.27 | inactive
ATPAF2 (ATP synthase mitochondrial F1 complex assembly factor 2) | 1 | 0.17 | inactive
ATPAF2 (ATP synthase mitochondrial F1 complex assembly factor 2) | 1 | -0.47 | inactive
MRGPRE (MAS related GPR family member E) | 1 | -0.33 | inactive
MRGPRE (MAS related GPR family member E) | 1 | 0.29 | inactive
MRGPRE (MAS related GPR family member E) | 1 | 0.54 | inactive
MRGPRE (MAS related GPR family member E) | 1 | 1.22 | inactive
FKBP14 (FKBP prolyl isomerase 14) | 1 | -0.25 | inactive
FKBP14 (FKBP prolyl isomerase 14) | 1 | 2.18 | inactive
FKBP14 (FKBP prolyl isomerase 14) | 1 | 0.28 | inactive
FKBP14 (FKBP prolyl isomerase 14) | 1 | 2.14 | inactive

The list goes on.
gene knocked down | reagent | TNF reporter robust z-score | activity call
PORCN (porcupine O-acyltransferase) | 1 | -0.55 | inactive
PORCN (porcupine O-acyltransferase) | 1 | -0.48 | inactive
PORCN (porcupine O-acyltransferase) | 1 | -0.68 | inactive
PORCN (porcupine O-acyltransferase) | 1 | -0.19 | inactive
MRPL50 (mitochondrial ribosomal protein L50) | 1 | 1.02 | inactive
MRPL50 (mitochondrial ribosomal protein L50) | 1 | 1.94 | inactive
MRPL50 (mitochondrial ribosomal protein L50) | 1 | 2.51 | inactive
MRPL50 (mitochondrial ribosomal protein L50) | 1 | 1.35 | inactive
MFN1 (mitofusin 1) | 1 | -0.1 | inactive
MFN1 (mitofusin 1) | 1 | -0.32 | inactive
MFN1 (mitofusin 1) | 1 | -0.56 | inactive
MFN1 (mitofusin 1) | 1 | 1.1 | inactive
NFIX (nuclear factor I X) | 1 | -0.64 | inactive
NFIX (nuclear factor I X) | 1 | 1.12 | inactive
NFIX (nuclear factor I X) | 1 | 0.23 | inactive
NFIX (nuclear factor I X) | 1 | 0.51 | inactive
DDB1 (damage specific DNA binding protein 1) | 1 | -0.06 | inactive
DDB1 (damage specific DNA binding protein 1) | 1 | 0.04 | inactive
DDB1 (damage specific DNA binding protein 1) | 1 | 0.31 | inactive
DDB1 (damage specific DNA binding protein 1) | 1 | 0.26 | inactive
EYA3 (EYA transcriptional coactivator and phosphatase 3) | 1 | 0.15 | inactive
EYA3 (EYA transcriptional coactivator and phosphatase 3) | 1 | 0.43 | inactive
EYA3 (EYA transcriptional coactivator and phosphatase 3) | 1 | -0.41 | inactive
EYA3 (EYA transcriptional coactivator and phosphatase 3) | 1 | 0.53 | inactive
JARID2 (jumonji and AT-rich interaction domain containing 2) | 1 | -0.24 | inactive
JARID2 (jumonji and AT-rich interaction domain containing 2) | 1 | -0.62 | inactive
JARID2 (jumonji and AT-rich interaction domain containing 2) | 1 | -0.64 | inactive
JARID2 (jumonji and AT-rich interaction domain containing 2) | 1 | -0.41 | inactive
COMMD9 (COMM domain containing 9) | 1 | 0.73 | inactive
COMMD9 (COMM domain containing 9) | 1 | 1.55 | inactive
COMMD9 (COMM domain containing 9) | 1 | 2.86 | active
COMMD9 (COMM domain containing 9) | 1 | 2.59 | inactive
COMMD9 (COMM domain containing 9) | 2 | 0.18 | inactive
COMMD9 (COMM domain containing 9) | 2 | 1.24 | inactive
COMMD9 (COMM domain containing 9) | 2 | 1.14 | inactive
COMMD9 (COMM domain containing 9) | 2 | 0.67 | inactive
HAND2 (heart and neural crest derivatives expressed 2) | 1 | -0.43 | inactive
HAND2 (heart and neural crest derivatives expressed 2) | 1 | 0.02 | inactive
HAND2 (heart and neural crest derivatives expressed 2) | 1 | 0.31 | inactive
HAND2 (heart and neural crest derivatives expressed 2) | 1 | -0.08 | inactive
PIN4 (peptidylprolyl cis/trans isomerase, NIMA-interacting 4) | 1 | -0.21 | inactive
PIN4 (peptidylprolyl cis/trans isomerase, NIMA-interacting 4) | 1 | -0.06 | inactive
PIN4 (peptidylprolyl cis/trans isomerase, NIMA-interacting 4) | 1 | -0.44 | inactive
PIN4 (peptidylprolyl cis/trans isomerase, NIMA-interacting 4) | 1 | -0.17 | inactive
FSD1 (fibronectin type III and SPRY domain containing 1) | 1 | 0.81 | inactive
FSD1 (fibronectin type III and SPRY domain containing 1) | 1 | 2.43 | inactive
FSD1 (fibronectin type III and SPRY domain containing 1) | 1 | 2.68 | inactive
FSD1 (fibronectin type III and SPRY domain containing 1) | 1 | 3.54 | active
PDCD2L (programmed cell death 2 like) | 1 | 2.64 | inactive
PDCD2L (programmed cell death 2 like) | 1 | 1.92 | inactive
PDCD2L (programmed cell death 2 like) | 1 | 3.51 | active
PDCD2L (programmed cell death 2 like) | 1 | 2.95 | active
LRRC74A (leucine rich repeat containing 74A) | 1 | -0.36 | inactive
LRRC74A (leucine rich repeat containing 74A) | 1 | -0.06 | inactive
LRRC74A (leucine rich repeat containing 74A) | 1 | 0.2 | inactive
LRRC74A (leucine rich repeat containing 74A) | 1 | 0.04 | inactive
IL13RA2 (interleukin 13 receptor subunit alpha 2) | 1 | -0.7 | inactive
IL13RA2 (interleukin 13 receptor subunit alpha 2) | 1 | -0.19 | inactive
IL13RA2 (interleukin 13 receptor subunit alpha 2) | 1 | -0.83 | inactive
IL13RA2 (interleukin 13 receptor subunit alpha 2) | 1 | -0.41 | inactive
RNASEH2B (ribonuclease H2 subunit B) | 1 | -0.26 | inactive
RNASEH2B (ribonuclease H2 subunit B) | 1 | 0.2 | inactive
RNASEH2B (ribonuclease H2 subunit B) | 1 | -0.03 | inactive
RNASEH2B (ribonuclease H2 subunit B) | 1 | 1.14 | inactive
EPOR (erythropoietin receptor) | 1 | 0.83 | inactive
EPOR (erythropoietin receptor) | 1 | 0.39 | inactive
EPOR (erythropoietin receptor) | 1 | 0.72 | inactive
EPOR (erythropoietin receptor) | 1 | 1.06 | inactive
CELSR2 (cadherin EGF LAG seven-pass G-type receptor 2) | 1 | -0.85 | inactive
CELSR2 (cadherin EGF LAG seven-pass G-type receptor 2) | 1 | -1.08 | inactive
CELSR2 (cadherin EGF LAG seven-pass G-type receptor 2) | 1 | -0.68 | inactive
OR14K1 (olfactory receptor family 14 subfamily K member 1) | 1 | 0.29 | inactive
OR14K1 (olfactory receptor family 14 subfamily K member 1) | 1 | -0.1 | inactive
OR14K1 (olfactory receptor family 14 subfamily K member 1) | 1 | -0.66 | inactive
OR14K1 (olfactory receptor family 14 subfamily K member 1) | 1 | 0.01 | inactive
